# Cell number after 72 h of treatment

Values as published with doi:10.1371/journal.pone.0140310, rounded.

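Human melanoma cells were exposed to two drugs together for 72 h in 1,536-well plates and read by automated microscopy after fixing and staining. Values are the number of DAPI-stained nuclei as a percentage of the DMSO control: 100 is no effect, lower means fewer cells. Every drug was used at one fixed concentration, the higher of two screened. These are primary screening values without error estimates.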
An unselected part of the screen is shown.

All values are for the listed drug together with XAV939 (10 µM): Oc1nc(-c2ccc(C(F)(F)F)cc2)nc2c1CSCC2

Partner	COLO 792	A2058	COLO 800	IPC-298	G-361	C32	501mel	A375	A101D	COLO 829
Cc1cc([N+](=O)[O-])ccc1NS(=O)(=O)c1cc(Cl)ccc1Cl at 5 µM	66.7	73.4	88.7	51.2	36.5	93.8	93.2	82.1	69.8	89.8
O=C1NC(=O)/C(=C/c2ccc(-c3ccc(F)cc3O)o2)S1 at 5 µM	66.4	75.8	60.0	90.1	76.3	97.8	92.0	114	88.4	102
CCN(CC)CCCCNc1ncc2cc(-c3cc(OC)cc(OC)c3)c(NC(=O)NC(C)(C)C)nc2n1 at 0.5 µM	87.3	80.6	97.8	92.1	84.0	104	82.1	97.8	86.4	145
COc1ccc(COc2ccc(Cc3cnc(N)nc3N)cc2OC)cc1 at 5 µM	85.4	81.9	89.5	87.1	90.9	114	86.2	78.6	90.4	89.7
COc1cc2ncnc(Nc3ccc(Oc4ccccc4)cc3)c2cc1OC at 10 µM	65.8	68.3	116	79.9	39.1	85.3	79.3	122	76.2	113
CCCCCCCCCCCC1=C(O)C(=O)C=C(O)C1=O at 6 µM	92.2	87.5	68.7	80.2	89.4	84.5	109	90.6	94.2	89.0
COc1ccc2c(c1)CCC1C2CCC2(C)C(NCCCCCCN3C(=O)C=CC3=O)CCC12 (configuration not stated) at 2 µM	101	72.7	68.7	98.2	101	104	96.7	92.2	76.1	99.5
O=c1cc(-c2cccc3c2Sc2ccccc2S3)oc(N2CCOCC2)c1 at 5 µM	77.8	85.7	99.1	92.0	67.8	113	111	128	89.3	111
N#Cc1c(O)c2c(-c3ccc(-c4ccccc4O)cc3)csc2[nH]c1=O at 10 µM	84.0	82.6	78.1	89.1	88.3	97.4	109	126	87.1	114
O=C(O)C(=O)Nc1sc2c(c1C(=O)O)CCNC2 at 8.33 µM	96.2	76.9	103	90.7	95.3	81.2	95.4	144	91.7	106
c1cc(-c2cnn3cc(-c4ccc(OCCN5CCCCC5)cc4)cnc23)ccn1 at 2 µM	65.5	64.5	78.0	82.0	44.5	66.0	60.1	77.1	78.8	93.9
CC(C)CCN1c2nc(Nc3cc(F)c(O)c(F)c3)ncc2N(C)C(=O)C1C (configuration not stated) at 1 µM	61.8	61.2	52.9	70.0	64.4	109	67.2	95.1	61.0	119
O=S(=O)(c1ccccc1)N(CC(F)(F)F)c1ccc(C(O)(C(F)(F)F)C(F)(F)F)cc1 at 7 µM	79.2	91.3	72.7	86.4	96.7	99.2	85.5	98.4	85.8	99.1
COC(=O)c1sccc1S(=O)(=O)Nc1ccc(Nc2ccccc2)cc1OC at 5 µM	84.1	77.4	144	86.9	79.4	88.9	90.8	83.5	105	123
Cn1cc(/C=C2\C(=O)Nc3cccnc32)c2ccccc21 at 2 µM	71.2	80.8	87.7	84.2	74.9	95.4	114	115	94.4	79.7

The last 2 entries again:

Partner,COLO 792,A2058,COLO 800,IPC-298,G-361,C32,501mel,A375,A101D,COLO 829
COC(=O)c1sccc1S(=O)(=O)Nc1ccc(Nc2ccccc2)cc1OC at 5 µM,84.1,77.4,144,86.9,79.4,88.9,90.8,83.5,105,123
Cn1cc(/C=C2\C(=O)Nc3cccnc32)c2ccccc21 at 2 µM,71.2,80.8,87.7,84.2,74.9,95.4,114,115,94.4,79.7